# These are yes or no findings as the source states them, for the method shown. Some results given as binding are weak or reduced against the parent protein; the word gives no strength. Sequences can lack the tags named with a protein.
# T1: mouse PRDX5 with a HA tag (generated in house) (mouse) (UniProt P99029)
# T1 sequence (looked up): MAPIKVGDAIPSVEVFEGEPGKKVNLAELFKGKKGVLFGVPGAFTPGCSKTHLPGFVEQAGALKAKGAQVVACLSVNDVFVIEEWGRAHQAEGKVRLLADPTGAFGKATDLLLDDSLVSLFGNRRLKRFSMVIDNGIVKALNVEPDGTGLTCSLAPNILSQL
# T2: mouse PRDX3 with a HA tag (generated in house) (mouse) (UniProt P20108)
# T2 sequence (looked up): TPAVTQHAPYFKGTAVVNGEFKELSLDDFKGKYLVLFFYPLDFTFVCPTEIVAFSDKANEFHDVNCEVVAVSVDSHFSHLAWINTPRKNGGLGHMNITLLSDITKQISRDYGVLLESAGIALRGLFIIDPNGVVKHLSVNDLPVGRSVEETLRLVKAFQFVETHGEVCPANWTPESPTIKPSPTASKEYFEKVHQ
# T3: mouse PRDX4 with a HA tag (generated in house) (mouse) (UniProt O08807)
# T3 sequence (looked up): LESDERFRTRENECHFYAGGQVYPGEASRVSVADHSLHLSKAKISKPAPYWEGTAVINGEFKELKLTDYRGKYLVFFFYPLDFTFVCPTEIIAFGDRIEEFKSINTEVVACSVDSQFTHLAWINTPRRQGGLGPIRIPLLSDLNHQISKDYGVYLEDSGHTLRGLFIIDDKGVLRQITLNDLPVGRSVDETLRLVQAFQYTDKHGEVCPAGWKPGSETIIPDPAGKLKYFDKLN
# T4: human PRDX1-His (NBC118543, Novus Biologics) (human) (UniProt Q06830)
# T4 sequence (looked up): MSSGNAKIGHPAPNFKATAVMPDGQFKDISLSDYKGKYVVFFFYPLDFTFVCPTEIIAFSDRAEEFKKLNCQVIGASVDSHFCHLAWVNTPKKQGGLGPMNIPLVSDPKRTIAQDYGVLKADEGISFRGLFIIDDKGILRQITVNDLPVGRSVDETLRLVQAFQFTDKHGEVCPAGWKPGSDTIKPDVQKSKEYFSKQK
# B1: mouse apoptosis inhibitor of macrophage (AIM), wild-type recombinant (protein, UniProt Q9QWK4 22-352, looked up)
# chain: ESPTKVQLVGGAHRCEGRVEVEHNGQWGTVCDDGWDRRDVAVVCRELNCGAVIQTPRGASYQPPASEQRVLIQGVDCNGTEDTLAQCELNYDVFDCSHEEDAGAQCENPDSDLLFIPEDVRLVDGPGHCQGRVEVLHQSQWSTVCKAGWNLQVSKVVCRQLGCGRALLTYGSCNKNTQGKGPIWMGKMSCSGQEANLRSCLLSRLENNCTHGEDTWMECEDPFELKLVGGDTPCSGRLEVLHKGSWGSVCDDNWGEKEDQVVCKQLGCGKSLHPSPKTRKIYGPGAGRIWLDDVNCSGKEQSLEFCRHRLWGYHDCTHKEDVEVICTDFDV
# B2: human apoptosis inhibitor of macrophage (AIM) (protein)
# chain: SPSGVRLVGGLHRCEGRVEVEQKGQWGTVCDDGWDIKDVAVLCRELGCGAASGTPSGILYEPPAEKEQKVLIQSVSCTGTEDTLAQCEQEEVYDCSHDEDAGASCENPESSFSPVPEGVRLADGPGHCKGRVEVKHQNQWYTVCQTGWSLRAAKVVCRQLGCGRAVLTQKRCNKHAYGRKPIWLSQMSCSGREATLQDCPSGPWGKNTCNHDEDTWVECEDPFDLRLVGGDNLCSGRLEVLHKGVWGSVCDDNWGEKEDQVVCKQLGCGKSLSPSFRDRKCYGPGVGRIWLDNVRCSGEEQSLEQCQHRFWGFHDCTHQEDVAVICSG
# Tests used:
# [1] = molecular target: T1, mouse PRDX5 with a HA tag (generated in house) (mouse); experiment: ELISA, DAMP coated at 2 µg/mL, AIM in solution (FIG. 4)
# [2] = molecular target: T2, mouse PRDX3 with a HA tag (generated in house) (mouse); experiment: as above
# [3] = molecular target: T3, mouse PRDX4 with a HA tag (generated in house) (mouse); experiment: as above
# [4] = molecular target: T4, human PRDX1-His (NBC118543, Novus Biologics) (human); experiment: ELISA, DAMP coated at 2 µg/mL, AIM in solution (FIG. 3A)
binder,measurement,setting,value
B1,binding,[1],binds
same,binding,[2],binds
same,binding,[3],binds
B2,binding,[4],binds

# From patent US20250108090A1
